Values are relative to the signal before dosing, not to a vehicle control; the signal also falls without drug.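 Labels refer to human fibroblasts, largely primary: uterine (C12385, HUF), lung (H6013), bone (Hs27A), adrenal (HADF), skin (WS1), plus mammary HMF and breast cancer-associated Hs343T. Cancer lines are basal-like or mesenchymal-like triple-negative breast cancer. The paper counts as hits responses shifting over 3x the replicate standard deviation. The tissue of the other fibroblasts is not given here.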
Tested on: MDAMB468
Experiment: relative JC-1 red fluorescence (viability) vs pre-drug, coculture with fibroblast (fraction); higher = more viable cancer cells
Method: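 JC-1 labelled TNBC cells cocultured 1:1 (1,500 cells each) with CellTrace Violet stained primary or stromal fibroblasts in 384-well plates in FluoroBrite medium, treated with one of 42 anticancer drugs at 0.1, 1, 10 or 100 uM. JC-1 red fluorescence (mitochondrial integrity in cancer cells only) was read by plate reader every 8 h for 72 h. Values are normalised to each well's pre-drug value. The stock of one drug was tenfold lower, so its dose labels may be too high.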

CCC1=C[C@@H]2CN(C1)Cc1c([nH]c3ccccc13)[C@@](C(=O)OC)(c1cc3c(cc1OC)N(C)[C@H]1[C@@](O)(C(=O)OC)[C@H](OC(C)=O)[C@]4(CC)C=CCN5CC[C@]31[C@@H]54)C2 [Vinorelbine]
relative JC-1 red fluorescence
Conditions	8 h	16 h	24 h	32 h	40 h	48 h	56 h	64 h	72 h
10 µM, coculture fibroblast: C12385	0.8945	0.8868	0.8816	0.83947	0.81108	0.804	0.7738	0.745	0.726
10 µM, coculture fibroblast: H6013	0.847	0.872	0.841	0.8405	0.81	0.8263	0.802	0.792	0.783
10 µM, coculture fibroblast: H6019	0.856	0.852	0.851	0.815	0.792	0.783	0.76	0.736	0.725
10 µM, coculture fibroblast: H6076	0.917	0.829	0.98	0.966	0.904	0.901	0.856	0.831	0.832
10 µM, coculture fibroblast: H6231	0.808	0.929	0.969	0.9548	0.9486	0.941	0.904	0.899	0.885
10 µM, coculture fibroblast: HADF	0.872	0.884	0.86	0.882	0.836	0.835	0.813	0.807	0.798
10 µM, coculture fibroblast: HCFa	0.866	0.9	0.876	0.894	0.861	0.892	0.856	0.83	0.819
10 µM, coculture fibroblast: HCPF	0.87	0.897	0.939	0.894	0.936	0.926	0.86	0.84	0.809
10 µM, coculture fibroblast: HHSteC	0.8764	0.9011	0.881	0.875	0.839	0.855	0.80617	0.8012	0.769
10 µM, coculture fibroblast: HMF	0.86957	0.852	0.839	0.761	0.902	0.779	0.962	0.935	0.897
10 µM, coculture fibroblast: HPFa	0.892	0.893	0.868	0.843	0.817	0.832	0.79	0.782	0.737
10 µM, coculture fibroblast: HUF	0.936	0.911	0.88	0.844	0.799	0.804	0.783	0.751	0.722
10 µM, coculture fibroblast: Hs5	0.883	0.757	0.846	0.812	0.972	0.945	0.912	0.881	0.895
10 µM, coculture fibroblast: Hs27A	0.836	0.854	0.804	0.827	0.7687	0.7705	0.752	0.741	0.769
10 µM, coculture fibroblast: Hs343T	0.917	0.819	0.737	0.718	0.854	0.81	0.915	0.905	0.868
10 µM, coculture fibroblast: WS1	0.895	0.868	0.858	0.826	0.792	0.765	0.745	0.712	0.707
100 µM, coculture fibroblast: C12385	0.716	0.645	0.471	0.324	0.266	0.241	0.191	0.164	0.136
100 µM, coculture fibroblast: H6013	0.711	0.425	0.339	0.278	0.243	0.225	0.184	0.158	0.107
100 µM, coculture fibroblast: H6019	0.77	0.465	0.313	0.236	0.186	0.168	0.134	0.114	0.0999
100 µM, coculture fibroblast: H6076	0.906	0.648	0.613	0.639	0.543	0.493	0.549	0.485	0.539
100 µM, coculture fibroblast: H6231	0.802	0.864	0.684	0.667	0.575	0.553	0.512	0.49	0.453
100 µM, coculture fibroblast: HADF	0.753	0.456	0.319	0.255	0.215	0.196	0.159	0.134	0.0864
100 µM, coculture fibroblast: HCFa	0.884	0.698	0.535	0.439	0.356	0.333	0.281	0.244	0.189
100 µM, coculture fibroblast: HCPF	0.939	0.776	0.82	0.824	0.894	0.866	0.965	0.949	0.938
100 µM, coculture fibroblast: HHSteC	0.744	0.4336	0.34	0.27	0.237	0.229	0.168	0.143	0.0937
100 µM, coculture fibroblast: HMF	0.937	0.846	0.828	0.85	0.94	0.941	0.886	0.858	0.846
100 µM, coculture fibroblast: HPFa	0.892	0.881	0.752	0.546	0.498	0.473	0.397	0.366	0.288
100 µM, coculture fibroblast: HUF	0.801	0.599	0.378	0.275	0.219	0.195	0.15	0.13	0.108
100 µM, coculture fibroblast: Hs5	0.849	0.582	0.396	0.342	0.26	0.223	0.191	0.156	0.161
100 µM, coculture fibroblast: Hs27A	0.726	0.431	0.346	0.282	0.244	0.217	0.185	0.163	0.113
100 µM, coculture fibroblast: Hs343T	0.839	0.853	0.816	0.872	0.823	0.836	0.975	0.96	0.948
100 µM, coculture fibroblast: WS1	0.765	0.484	0.343	0.275	0.23	0.2	0.17	0.141	0.124

Source: the supplement of paper PMC6078165
